No constants are given. Whether binding was seen depends on the method and setting. Some entries that bind do so weakly or less than the wild type.
Legend:
[1] = biological target: T1, intact human FGF21 (human, UniProt Q9NSA1 29-209); assay: Simoa bead sandwich assay, mAb4 beads and 0.8 µg/mL biotinylated mAb15
T1 construct: also called full-length, uncleaved FGF21; iFGF21
T1 sequence: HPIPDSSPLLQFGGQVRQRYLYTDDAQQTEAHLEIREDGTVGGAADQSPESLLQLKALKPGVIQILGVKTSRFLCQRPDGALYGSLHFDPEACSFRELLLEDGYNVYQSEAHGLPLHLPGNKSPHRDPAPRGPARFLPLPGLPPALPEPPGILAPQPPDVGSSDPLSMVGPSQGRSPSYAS

[2] = biological target: T1, intact human FGF21; assay: sandwich ELISA, mAb4 or mAb9 capture, mAb11 detector (FIG. 2)
[3] = biological target: T1, intact human FGF21; assay: pairwise sandwich ELISA, 653 pg/mL FGF21, average of intact and FAP-cleaved FGF21; capture mAb4, detector BIO-15; XX: OD > 1.5
[4] = biological target: T1, intact human FGF21; assay: pairwise sandwich ELISA, intact FGF21; capture mAb4, detector BIO-11 (biotinylated mAb11); XX: OD > 1
[5] = biological target: T1, intact human FGF21; assay: total FGF21 sandwich ELISA, mAb4 capture and mAb15 detector
[6] = biological target: T1, intact human FGF21; assay: pairwise sandwich ELISA, intact FGF21; capture mAb4, detector BIO-1 (biotinylated mAb1); XX: OD > 1
[7] = biological target: T1, intact human FGF21; assay: pairwise sandwich ELISA, 653 pg/mL FGF21, average of intact and FAP-cleaved FGF21; capture mAb4, detector BIO-11; XX: OD > 1.5
[8] = biological target: T1, intact human FGF21; assay: pairwise sandwich ELISA, intact FGF21; capture mAb4, detector BAF2539 (biotinylated goat pAb); XX: OD > 1
[9] = biological target: T1, intact human FGF21; assay: Simoa bead sandwich assay, mAb4 beads and biotinylated mAb15
[10] = biological target: T1, intact human FGF21; assay: pairwise sandwich ELISA, 653 pg/mL FGF21, average of intact and FAP-cleaved FGF21; capture mAb4, detector BIO-16; X: 0.5 < OD < 1.5
[11] = biological target: T1, intact human FGF21; assay: pairwise sandwich ELISA, intact FGF21; capture mAb4, detector BIO-10 (biotinylated mAb10); XX: OD > 1
[12] = biological target: T1, intact human FGF21; assay: pairwise sandwich ELISA, intact FGF21; capture mAb9, detector BAF2539 (biotinylated goat pAb); XX: OD > 1
[13] = biological target: T1, intact human FGF21; assay: pairwise sandwich ELISA, 653 pg/mL FGF21, average of intact and FAP-cleaved FGF21; capture mAb9, detector BIO-11; XX: OD > 1.5
[14] = biological target: T1, intact human FGF21; assay: pairwise sandwich ELISA, 653 pg/mL FGF21, average of intact and FAP-cleaved FGF21; capture mAb9, detector BIO-16; X: 0.5 < OD < 1.5
[15] = biological target: T1, intact human FGF21; assay: pairwise sandwich ELISA, intact FGF21; capture mAb9, detector BIO-11 (biotinylated mAb11); XX: OD > 1
[16] = biological target: T1, intact human FGF21; assay: pairwise sandwich ELISA, 653 pg/mL FGF21, average of intact and FAP-cleaved FGF21; capture mAb9, detector BIO-15; XX: OD > 1.5
[17] = biological target: T1, intact human FGF21; assay: pairwise sandwich ELISA, intact FGF21; capture mAb9, detector BIO-1 (biotinylated mAb1); XX: OD > 1
[18] = biological target: T1, intact human FGF21; assay: pairwise sandwich ELISA, intact FGF21; capture mAb9, detector BIO-10 (biotinylated mAb10); XX: OD > 1
[19] = biological target: T1, intact human FGF21; assay: pairwise sandwich ELISA, 653 pg/mL FGF21, average of intact and FAP-cleaved FGF21; capture mAb11, detector BIO-4; XX: OD > 1.5
[20] = biological target: T1, intact human FGF21; assay: pairwise sandwich ELISA, 653 pg/mL FGF21, average of intact and FAP-cleaved FGF21; capture mAb11, detector BIO-15; XX: OD > 1.5
[21] = biological target: T1, intact human FGF21; assay: pairwise sandwich ELISA, intact FGF21; capture mAb11, detector BAF2539 (biotinylated goat pAb); XX: OD > 1
[22] = biological target: T1, intact human FGF21; assay: pairwise sandwich ELISA, intact FGF21; capture mAb11, detector BIO-13 (biotinylated mAb13); X: OD < 1
[23] = biological target: T1, intact human FGF21; assay: Simoa bead sandwich assay, mAb4 beads, tested as detector
[24] = biological target: T1, intact human FGF21; assay: pairwise sandwich ELISA, intact FGF21; capture mAb11, detector BIO-9 (biotinylated mAb9); XX: OD > 1
[25] = biological target: T1, intact human FGF21; assay: pairwise sandwich ELISA, intact FGF21; capture mAb11, detector BIO-4 (biotinylated mAb4); XX: OD > 1
[26] = biological target: T1, intact human FGF21; assay: pairwise sandwich ELISA, 653 pg/mL FGF21, average of intact and FAP-cleaved FGF21; capture mAb15, detector BIO-11; X: 0.5 < OD < 1.5
[27] = biological target: T1, intact human FGF21; assay: pairwise sandwich ELISA, 653 pg/mL FGF21, average of intact and FAP-cleaved FGF21; capture mAb15, detector BIO-4; XX: OD > 1.5

Measured: binding

B1: mAb4 (antibody, V domains shown)
VH: EVKLVESGGDLVKPGGSLKLSCAASGFTFSSYGMSWVRQTPDKRLEWVATISTGGGYTYYPDSVKGRFTISRDNAKNTLYLQMSSLRSEDTAMYYCARHDLVDWYFDVWGTGTTVTVSS
VL: QIVLTQSPAIMSAPLGERVTMTCTASSSVSSSYLHWYQQKPGSSPKVWIYRTTNLASGVPTRFSGSGSGTSYSLTISSMEAEDAATYYCHQYHRSPPTWTFGGGTKLEIKR
notes: Biotinylated when used as detector, coupled to beads in the Simoa assays; also called BIO-4 (biotinylated); antibody 4
binds: [1] | [2] | [3] | [4] | [5] | [6] | [7] | [8] | [9] | [10] | [11]

B2: mAb9 (antibody, V domains shown)
VH: EVQLQQSGPELVKPGASVKIPCKASGYTFTDYYMGWVKQSHGKSLEWIGDINPNNGVTINNQNFKGKATLTVDKSSSTAYMELRSLASEDTAVYYCTRGYGGALDYWGQGTSVTVSS
VL: DIQMTQSPASLSASVGETVIITCRASENIYSYLAWYQQKQGKSPQLLVYNIRTLAEGVPSRFSGSGSGTQFSLKINSLQPEDFGSYYCQHHYDSPWTFGGGTKLEIKR
notes: also called BIO-9 (biotinylated); antibody 9
binds: [2] | [12] | [13] | [14] | [15] | [16] | [17] | [18]

B3: mAb11 (antibody, V domains shown)
VH: QVQLQQSGAELARPGASVKLSCKASGYTFTNYGISWVKQRTGQGLEWIGEIYPRSDNTYYNEKFKGKATLTADKSSSTAYMELRSLTSEDSAVYFCTRSDYGFFDYWGQGTTLTVSS
VL: QIVLTQSPALMSASPGERVTMTCSAGSSVSYMYWYQQKPRSSPKPWIYLTSNLASGVPARFSGSGSGTSYSLTISSMEAEDAATYYCQQWSSNPRTFGGGTKLEIKR
notes: Biotinylated when used as detector; also called BIO-11 (biotinylated); antibody 11
binds: [2] | [19] | [20] | [21] | [22] | [23] | [24] | [25]

B4: mAb15 (antibody, V domains shown)
VH: QVQLIQSGPGLVQPSQSLSITCTVSGFSLTGYAIHWVRQSPGKGLEWLGMIWKSGNTDYNAAFMSRLSITKDNSKSQVFFKMNSLQADDTAIYYCARNGYDYEFVYWGQGTLVTVSA
VL: DVLMTQTPLSLPVSLGDQASISCRSSQIIVHNNGDTYLEWYLQKPGQSPKLLIYKISNRFSGVPDRFSGSGSGTDFTLKISRVEAEDLGVYYCFQGSHVPYTFGGGTKLEIKR
notes: Biotinylated when used as detector; also called BIO-15 (biotinylated); mAb15-Biotin
binds: [1] | [5] | [23] | [26] | [9] | [27]
